Test results reported in patent US20240277736A1, “USE OF […] THE TREATMENT OF NE[…] INJURY AND MIGRAINES” (priority 2020, published 2024).

System: TBI mice
Assay: Morris water maze test in a mouse model of traumatic brain injury (controlled cortical impact)

CN(C)CCc1c[nH]c2cccc(OP(=O)(O)O)c12 [Psilocybin, 4-phosphoryloxy-N,N-dimethyltryptamine]
Velocity of movement (in words) (MWM test, TBI mice): not altered
Velocity (movement speed in MWM test) (Psi-H (high dose), Day 3 (PID3, before drug treatment)): 23.27 ± 1.40 cm/s
Velocity (movement speed in MWM test) (Psi-H (high dose, i.n. day 4 to day 8 after CCI), Day 10): 25.00 ± 1.57 cm/s
Velocity (movement speed in MWM test) (Psi-H (high dose, i.n. day 4 to day 8 after CCI), Day 14): 26.38 ± 1.22 cm/s
Velocity (movement speed in MWM test) (Psi-H (high dose, i.n. day 4 to day 8 after CCI), Day 21): 27.06 ± 1.53 cm/s
Velocity (movement speed in MWM test) (Psi-L (low dose), Day 3 (PID3, before drug treatment)): 26.35 ± 1.44 cm/s
Velocity (movement speed in MWM test) (Psi-L (low dose, i.n. day 4 to day 8 after CCI), Day 10): 25.79 ± 1.39 cm/s
Velocity (movement speed in MWM test) (Psi-L (low dose, i.n. day 4 to day 8 after CCI), Day 14): 26.18 ± 0.76 cm/s
Velocity (movement speed in MWM test) (Psi-L (low dose, i.n. day 4 to day 8 after CCI), Day 21): 26.66 ± 0.76 cm/s
